# This is one part of the list.
# Molecular target: T1, OsSMF1 (Oryza sativa, UniProt Q6ZLB0 1-436)
# T1 sequence: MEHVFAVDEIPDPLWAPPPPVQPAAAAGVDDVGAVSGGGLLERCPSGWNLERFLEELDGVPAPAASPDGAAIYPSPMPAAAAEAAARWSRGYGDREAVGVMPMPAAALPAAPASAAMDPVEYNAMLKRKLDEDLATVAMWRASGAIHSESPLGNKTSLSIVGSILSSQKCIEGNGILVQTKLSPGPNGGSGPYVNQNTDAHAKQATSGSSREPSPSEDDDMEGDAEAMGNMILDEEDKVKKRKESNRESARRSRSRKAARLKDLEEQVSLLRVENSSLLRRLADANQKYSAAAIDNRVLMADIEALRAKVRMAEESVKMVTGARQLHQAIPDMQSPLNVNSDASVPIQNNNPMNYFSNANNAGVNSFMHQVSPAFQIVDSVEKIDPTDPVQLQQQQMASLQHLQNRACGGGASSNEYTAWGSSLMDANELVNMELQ
# Test: protein-binding microarray (RPBM); PBS, 2% BSA, 51.3 ng/ul salmon testes DNA, 50 uM zinc acetate, 200 nM TF, 25 C, 1 h; high values mean tight binding
# Settings: protein: recombinant; tags: N-terminal polyhistidine and DsRed monomer fusion (pET32a); chain copies: 2; label: CyDye5-dUTP incorporated in the synthesized complementary strand; 3' TTTTT single-stranded linker to array surface; dsDNA, one strand shown
# Method in brief: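 Using Ni–NTA, transcription factors fused N-terminally to polyhistidine and DsRed were purified after expression in E. coli BL21-CodonPlus. These were incubated at 200 nM with a blocked, double-stranded custom Agilent array for 1 h at 25 °C in a buffer containing 50 µM zinc acetate, and the array was washed. The binding signal is per-feature fluorescence intensity (arbitrary units) on an Axon 4000B scanner.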
row,Sequence,binding signal
1,CCCACGTGATATTGACGTGGCACTTACCATGATAATTTGACGGAGTCACCTAGTGCAG,18100 fluorescence intensity (a.u.)
2,CCAAATGAAGTTGAAGCTAAGCTATGACGTACCATACCAGCGGAGTCACCTAGTGCAG,5410 fluorescence intensity (a.u.)
3,AGAAGATTAACCGTTAAACCGTTTTATCAGCCATGGGATGCGGAGTCACCTAGTGCAG,16800 fluorescence intensity (a.u.)
4,CACGCCAGCGTTGTCCCCGTCCCCGTCCACAGCCACGCCGCGGAGTCACCTAGTGCAG,3850 fluorescence intensity (a.u.)
5,TTTATGGATAGAAGATGCACCGGCCAGGTCATGAAGATCACGGAGTCACCTAGTGCAG,4050 fluorescence intensity (a.u.)
6,TTGCAACCTCCACTGTTGACATGGCCTGCATCTTCCTGTCCGGAGTCACCTAGTGCAG,3340 fluorescence intensity (a.u.)
7,GGAGGAGATCGAGCAGCCGCTGACGCTCGTCGTCTACCTCCGGAGTCACCTAGTGCAG,3370 fluorescence intensity (a.u.)
8,CGTGTGGCGTGGACTTGTGGTGTATGTGTGGTGTGTGTTCCGGAGTCACCTAGTGCAG,4720 fluorescence intensity (a.u.)
9,TCATGGGTGGCGCCATGGCCACGCGTCTCCTCCTCGCCACCGGAGTCACCTAGTGCAG,4550 fluorescence intensity (a.u.)
10,GCCAGGCGCGGCATGTGCTGACGTGAGTTGTGGAGTCTACCGGAGTCACCTAGTGCAG,4210 fluorescence intensity (a.u.)
11,TCCGAGCTCGTAGCCTCGCTCTCCCGCCTATAAATTCACCCGGAGTCACCTAGTGCAG,4390 fluorescence intensity (a.u.)
12,CTCGGCCGGCTACGTTGGAGATGAGGGCTGGAGGCGGCTGCGGAGTCACCTAGTGCAG,3420 fluorescence intensity (a.u.)
13,CCGACAAAAGATGGTTTCTCCATCAGTGAAGACACAATGTCGGAGTCACCTAGTGCAG,19500 fluorescence intensity (a.u.)
14,TTCGAGTTGGTCGCCGTGCGGCGATGGCGACCGCCAAGTGCGGAGTCACCTAGTGCAG,21300 fluorescence intensity (a.u.)
15,ACTAGGATGTCACAACAGCCAAACCATCCATATACTGCCACGGAGTCACCTAGTGCAG,3170 fluorescence intensity (a.u.)
16,GATAGATACACCAACCAGGAGACATCACGACACGTCATCGCGGAGTCACCTAGTGCAG,29200 fluorescence intensity (a.u.)
17,GGAGATTTGGATACAAAACGTGACGGCAGTGATATGGTTACGGAGTCACCTAGTGCAG,3440 fluorescence intensity (a.u.)
18,GCGGAATTATTCTGGTGAGAGGTCTGATTGCATGTCAGCCCGGAGTCACCTAGTGCAG,3150 fluorescence intensity (a.u.)
19,CATCACTGCCTCACCACCTTATATTAGTCACGTTTGACGGCGGAGTCACCTAGTGCAG,4380 fluorescence intensity (a.u.)
20,CCAACCGTGGGCCACCCAGGTCACATTGGTTCTGCTCTACCGGAGTCACCTAGTGCAG,3270 fluorescence intensity (a.u.)
21,CCCATCACAAATCTCTATAAGATGGTATACTTAGTAACAACGGAGTCACCTAGTGCAG,3800 fluorescence intensity (a.u.)
22,TTGGTGAGTTGACAGAAATTTGTATCATCTTAAAATGAGCCGGAGTCACCTAGTGCAG,3210 fluorescence intensity (a.u.)
23,AATCTGCACCGGTTTTGATAGTTAAGGGACTAATTGTATCCGGAGTCACCTAGTGCAG,41700 fluorescence intensity (a.u.)
24,TGGACGAATCTTTTAAGCCTAATTGCGTCATGATTTGACACGGAGTCACCTAGTGCAG,5380 fluorescence intensity (a.u.)
25,TATGTGAAAGTCAATGACGTCACATATTTTAAAACAAGGTCGGAGTCACCTAGTGCAG,6320 fluorescence intensity (a.u.)
26,AACTGTCACTACTTCATCCAACCACTCCAAATCCAAAACCCGGAGTCACCTAGTGCAG,3420 fluorescence intensity (a.u.)
27,ATCTTCTTCTTCATCGCTGTGCAGCTACACACTCTCACTGCGGAGTCACCTAGTGCAG,3180 fluorescence intensity (a.u.)

# Reprinted at random: 2 entries already listed, in no set order.
row,Sequence,binding signal
21,CCCATCACAAATCTCTATAAGATGGTATACTTAGTAACAACGGAGTCACCTAGTGCAG,3800 fluorescence intensity (a.u.)
17,GGAGATTTGGATACAAAACGTGACGGCAGTGATATGGTTACGGAGTCACCTAGTGCAG,3440 fluorescence intensity (a.u.)

# Going on with the list.

row,Sequence,binding signal
1,TGCCAGTAATTGTGACGTGACAAGATGCAGGCGTGGTGTGCGGAGTCACCTAGTGCAG,4770 fluorescence intensity (a.u.)
2,CCGCGAGCCACCGCTACCGTCTTGACGCGTGCCCATTCTCCGGAGTCACCTAGTGCAG,3750 fluorescence intensity (a.u.)
3,GGAAAGAGAGATGATGATGATGTGGCATATTGACGTGTGGCGGAGTCACCTAGTGCAG,8870 fluorescence intensity (a.u.)
4,TCCCCGTCTTTTCCTTCCGCCTCACCAACCTCGTCTCGTCCGGAGTCACCTAGTGCAG,3330 fluorescence intensity (a.u.)
5,GTACAATTTACTCAAATAACATTGACTGGCATTCTTGGTGCGGAGTCACCTAGTGCAG,3350 fluorescence intensity (a.u.)
6,GTCGTGCGCGCCACTACTACTGTATATCTGCTACCTCAACCGGAGTCACCTAGTGCAG,3620 fluorescence intensity (a.u.)
7,TTTAATCACAGCGGACGGAGTCCAATATTGCAATTTTCTCCGGAGTCACCTAGTGCAG,3480 fluorescence intensity (a.u.)
8,CCCCTTCTCCTCTGCATCCTCCGCTGCGCGTGCCACCACCCGGAGTCACCTAGTGCAG,3290 fluorescence intensity (a.u.)
9,CTATAACTACAAGTGCCAACACAGCACTGTGATGCAGCACCGGAGTCACCTAGTGCAG,10400 fluorescence intensity (a.u.)
10,CCGGTCGGCCTCGCCGCCGTCGCCGCCGCCACCGCATCACCGGAGTCACCTAGTGCAG,4460 fluorescence intensity (a.u.)
11,CCCCGCGTGTCCTTCCTCCTGCACACGTGCCTCGCCGCGCCGGAGTCACCTAGTGCAG,7490 fluorescence intensity (a.u.)
12,TACTTTTCCTTGTTGGATCTTGGATGATGTGTGTACACACCGGAGTCACCTAGTGCAG,4060 fluorescence intensity (a.u.)
13,GAGGATGGGTTTATGTCAGAATTGAAAGCCTTCCTTCAGACGGAGTCACCTAGTGCAG,3420 fluorescence intensity (a.u.)
14,GCGCATGGGCTGGATGCAACCTGAGAAACACTGGGCCGAACGGAGTCACCTAGTGCAG,16000 fluorescence intensity (a.u.)
15,ACGGGCCCGCGTGGGCCCGTCGTTGCAGTCACATCCTCCCCGGAGTCACCTAGTGCAG,4830 fluorescence intensity (a.u.)
16,TCTTCATCGTCTTCCTCCTCTCCTCCCGCCACGACGCCATCGGAGTCACCTAGTGCAG,3150 fluorescence intensity (a.u.)
17,TAGTCGAGGGCCACGGCCTGGTCGGGGCTCGGCTTCGCCTCGGAGTCACCTAGTGCAG,21300 fluorescence intensity (a.u.)
18,TGGGTGGGTGGTTGCCACTTGGACACGTAGCCGGCGCCCCCGGAGTCACCTAGTGCAG,4800 fluorescence intensity (a.u.)
19,GCCGGTGGCCGTGCCGGACGGCGTCACCGTGCCGGAGTTCCGGAGTCACCTAGTGCAG,3830 fluorescence intensity (a.u.)
20,TTATACACACAGTGTGTCGTGGAGTCCGTACTACAGCTGGCGGAGTCACCTAGTGCAG,3710 fluorescence intensity (a.u.)
21,AATTATGTTTTATAAGACGTTAGCATTTAAACTACAATCCCGGAGTCACCTAGTGCAG,55600 fluorescence intensity (a.u.)
22,GATGGCCGGGAGGGAGAGAGAAGGACGCGTCGGCTGCTCCCGGAGTCACCTAGTGCAG,3850 fluorescence intensity (a.u.)
23,TTAAGCCTAATTAATCTGTCATTAGTAAATGTTTACTGTACGGAGTCACCTAGTGCAG,20600 fluorescence intensity (a.u.)
24,CAAAATATTATTAATAATTGTCACTCGCGACCTGTAGTTGCGGAGTCACCTAGTGCAG,3160 fluorescence intensity (a.u.)
25,AGGGTTCCGCGCGCCGGCCATCTCCCCGCTTCTCACCCCACGGAGTCACCTAGTGCAG,3410 fluorescence intensity (a.u.)
26,CTAAAACTCAACATATAAACATGCCACCTCATCATCTATACGGAGTCACCTAGTGCAG,7400 fluorescence intensity (a.u.)
27,CTCCTCCCCTCTCCCTGCCACGCGGGCCCCACACCATCTCCGGAGTCACCTAGTGCAG,6200 fluorescence intensity (a.u.)
